Data reported in patent US20160076075A1 (priority 2014, published 2016).
For at least one compound, name, drawing or mass did not settle the structure.

Tested on: IMCSzyme™ (recombinant glucuronidase)
Test: IMCSzyme hydrolysis of benzodiazepine glucuronides in urine control
Type: biochemical

O=C1Nc2ccc(Cl)cc2C(c2ccccc2)=NC1O (stereo not drawn) [Oxazepam, Oxazepam Glucuronide]
Mean % Hydrolysis (55° C., 5 min): 88.8%
Mean % Hydrolysis (55° C., 15 min): 94.2%
Mean % Hydrolysis (55° C., 30 min): 93.0%
Mean % Hydrolysis (55° C., 45 min): 96.9%
Mean % Hydrolysis (55° C., 60 min): 95.7%
Mean % Hydrolysis (Room Temperature, 0 min): 90.5%
Mean % Hydrolysis (Room Temperature, 5 min): 94.3%
Mean % Hydrolysis (Room Temperature, 10 min): 92.0%
Mean % Hydrolysis (Room Temperature, 15 min): 91.9%
